No constants are given. Whether binding was seen depends on the method and setting. Binding seen in cells or lysates may run through a third protein. Here binding means that the protein was enriched with, or labelled near, the bait; the list need not be complete. Sequences can lack the tags named with a protein.

Sequences of proteins named here, by UniProt entry; tags and fusion partners are left off.
UniProt Q92769: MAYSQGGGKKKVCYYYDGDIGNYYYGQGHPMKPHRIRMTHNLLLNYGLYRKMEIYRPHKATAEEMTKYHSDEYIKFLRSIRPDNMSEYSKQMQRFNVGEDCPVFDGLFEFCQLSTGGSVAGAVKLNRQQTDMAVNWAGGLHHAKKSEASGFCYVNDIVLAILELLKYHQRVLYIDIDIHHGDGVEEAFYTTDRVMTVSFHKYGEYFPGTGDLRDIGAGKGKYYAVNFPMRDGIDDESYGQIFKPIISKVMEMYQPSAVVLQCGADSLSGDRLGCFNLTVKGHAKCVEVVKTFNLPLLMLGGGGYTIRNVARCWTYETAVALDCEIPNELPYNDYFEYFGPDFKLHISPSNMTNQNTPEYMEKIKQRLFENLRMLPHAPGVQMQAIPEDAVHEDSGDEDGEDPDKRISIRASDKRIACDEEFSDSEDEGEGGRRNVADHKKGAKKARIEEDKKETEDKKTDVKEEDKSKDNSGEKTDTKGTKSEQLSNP
UniProt Q13547: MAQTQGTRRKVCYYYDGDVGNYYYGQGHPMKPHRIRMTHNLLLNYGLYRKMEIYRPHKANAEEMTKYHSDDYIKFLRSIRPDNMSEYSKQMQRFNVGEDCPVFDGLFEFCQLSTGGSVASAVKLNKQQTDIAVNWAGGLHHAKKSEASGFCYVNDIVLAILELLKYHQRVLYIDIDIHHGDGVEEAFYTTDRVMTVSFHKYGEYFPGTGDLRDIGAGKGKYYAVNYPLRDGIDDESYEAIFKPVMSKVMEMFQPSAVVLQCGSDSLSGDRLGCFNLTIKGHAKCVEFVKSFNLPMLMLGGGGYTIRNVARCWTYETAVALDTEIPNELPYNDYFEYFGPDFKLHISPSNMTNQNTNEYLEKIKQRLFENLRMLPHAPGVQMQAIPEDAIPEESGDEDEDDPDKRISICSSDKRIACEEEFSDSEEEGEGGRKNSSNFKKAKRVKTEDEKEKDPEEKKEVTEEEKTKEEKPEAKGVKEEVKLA

The target in this test is T1, Flag-tagged E2F7 (UniProt Q96AV8).
T1 sequence: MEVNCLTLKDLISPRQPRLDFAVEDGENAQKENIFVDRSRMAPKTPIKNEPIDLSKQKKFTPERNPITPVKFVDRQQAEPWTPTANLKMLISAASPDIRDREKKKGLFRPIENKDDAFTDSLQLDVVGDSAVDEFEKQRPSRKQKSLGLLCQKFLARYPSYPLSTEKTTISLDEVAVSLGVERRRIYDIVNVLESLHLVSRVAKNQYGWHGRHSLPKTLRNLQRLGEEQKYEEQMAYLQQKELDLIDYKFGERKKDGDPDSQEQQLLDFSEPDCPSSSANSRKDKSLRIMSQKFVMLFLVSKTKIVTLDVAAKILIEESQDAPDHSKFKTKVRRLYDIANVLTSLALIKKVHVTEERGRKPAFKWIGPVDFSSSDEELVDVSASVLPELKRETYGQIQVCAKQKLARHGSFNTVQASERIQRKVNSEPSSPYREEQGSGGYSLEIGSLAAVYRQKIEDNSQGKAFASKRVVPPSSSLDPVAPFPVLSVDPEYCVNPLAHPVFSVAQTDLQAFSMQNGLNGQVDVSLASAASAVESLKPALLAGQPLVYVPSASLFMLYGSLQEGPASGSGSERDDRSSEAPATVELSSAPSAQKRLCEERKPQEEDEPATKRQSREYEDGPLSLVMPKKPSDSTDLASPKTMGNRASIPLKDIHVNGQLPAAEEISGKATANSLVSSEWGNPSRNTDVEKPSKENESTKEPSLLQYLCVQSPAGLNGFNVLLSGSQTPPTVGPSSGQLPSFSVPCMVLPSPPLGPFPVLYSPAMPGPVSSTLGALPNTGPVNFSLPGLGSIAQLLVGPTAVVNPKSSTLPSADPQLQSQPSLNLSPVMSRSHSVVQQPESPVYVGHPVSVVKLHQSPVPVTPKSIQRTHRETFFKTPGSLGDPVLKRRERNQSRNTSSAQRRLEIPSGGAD
Kind of test: affinity purification with mass spectrometry; H526 cells stably expressing Flag-tagged E2F7 or RCOR1 lysed in 1% NP40 buffer; supernatant incubated with M2 Flag resin overnight, washed with lysis buffer, eluted with 3XFlag peptide; background of Flag vector control subtracted.
With HDAC2 (from UniProt Q92769 1-488), the binding entry is listed as “binds”.

Take RCOR (human (endogenous in H526)): the binding result is “binds”.

For HDAC1 (from UniProt Q13547 1-482), the binding result was “binds”.

These data come from PMC10516997.
